Assay results reported in patent US20260384421A1, “NOVEL COMPOUNDS THAT CAN BE USED AS THERAPEUTIC AGENTS” (published 2026).

Legend:
HCT-116 cells = experiment: alamarBlue proliferation assay with HCT-116 cells; details: read-out: Activity on HCT-116: IC50, McCoy's 5A medium, 10% FBS
Excerpt: (§1) These hyperproliferative processes can be benign or malignant and include hyperplasia, neoplasia, cancer and pre-cancerous lesions, and metastases. […] The readout was taken with a multi-well plate-reader (Tecan Spark®) in the fluorescence mode with applying a filter for excitation at 560 nm (band width 10 nm) and for emission at 590 nm (band width 10 nm). […]

NB-4 cells = experiment: alamarBlue proliferation assay with NB-4 cells; details: read-out: Activity on NB-4: IC50, RPMI 1640 medium, 10% FBS
Excerpt: as §1

A-431 cells = experiment: alamarBlue proliferation assay with A-431 cells; details: read-out: Activity on A-431: IC50, DMEM medium, 10% FBS
Excerpt: as §1

Row | IC50 (HCT-116 cells) | IC50 (A-431 cells) | SMILES | IC50 (NB-4 cells)
1 | ≤ 5 µM and ≤ 1 µM | – | O=C(c1ccc(Oc2ccc(C3CCCCC3)cc2CO)cn1)N1CCN(Cc2ccccc2)CC1 | ≤ 5 µM and ≤ 1 µM
2 | – | ≤ 20 µM and ≤ 5 µM | CCCCN1CCN(C(=O)c2ccc(Oc3ccc(C4CCC5(CC4)OCCO5)cc3CO)cc2)CC1 | –

For part of its entries the source gives two or more results. They are shown here; other results are not. There may be further records. Values given together differ, and nothing given here explains why; some may be repeats, others may stem from another dose, organism or construct than stated.
